Measured data: PubChem BioAssay AID1053208 (Peter MacCallum Cancer Centre, 2014)

Purpose: 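Find knock-downs that sensitise mouse osteosarcoma cells to doxorubicin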 (primary screen)
Cells: mouse osteosarcoma cells, early-passage culture from an engineered mouse model of fibroblastic bone tumour
Reagents: siRNA pool against mouse genes, 40 nM
Timing: about 120 h (48 h before drug, then 72 h with drug)
Conditions: doxorubicin 100 nM for 72 h, roughly 30-40% inhibitory dose
Measurement: 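Viability read as ATP luminescence after 72 h of 100 nM doxorubicin or none, duplicate wells averaged, scaled to non-targeting siRNA, then expressed as robust z-scores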
Reading the numbers: viability z-score with doxorubicin: higher = more viable cells under doxorubicin; viability z-score without drug: higher = more viable cells with knock-down alone
Rule for the call: 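a pool counts as active when its viability z-score with doxorubicin is -2 or below and its z-score without drug lies between -2 and 2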
Here is one part, drawn at random, of about 17,000 reagents. In the full data, 788 (4.7%) are marked active. 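Calls rest on z-score classes alone; an extra cut-off of viability at most 70% of control was not applied to them.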 Unmarked entries are inactive. Further read-outs or replicates are left out here.

Trim14 (GeneID 74735) — combined z-score class = no change with or without drug; viability z-score with doxorubicin = 0.67; viability z-score without drug = 0.51
Eed (GeneID 13626) — combined z-score class = no change with or without drug; viability z-score with doxorubicin = -0.45; viability z-score without drug = -0.17
Paics (GeneID 67054) — combined z-score class = no change with or without drug; viability z-score with doxorubicin = 0.34; viability z-score without drug = -0.67
Nid2 (GeneID 18074) — combined z-score class = no change with or without drug; viability z-score with doxorubicin = 0.9; viability z-score without drug = -0.34
Plxdc1 (GeneID 72324) — combined z-score class = no change with or without drug; viability z-score with doxorubicin = -0.22; viability z-score without drug = -0.17
Prl2a1 (GeneID 56635) — combined z-score class = no change with or without drug; viability z-score with doxorubicin = 0.45; viability z-score without drug = 0.51
Or51d1 (GeneID 258358) — combined z-score class = no change with or without drug; viability z-score with doxorubicin = 1.57; viability z-score without drug = -0.17
Vwa3b (GeneID 70853) — combined z-score class = no change with or without drug; viability z-score with doxorubicin = -0.67; viability z-score without drug = 1.18
Dusp19 (GeneID 68082) — combined z-score class = no change with or without drug; viability z-score with doxorubicin = 1.46; viability z-score without drug = -0.17
Slc35f5 (GeneID 74150) — combined z-score class = low cell count with doxorubicin only (active); viability z-score with doxorubicin = -5.17; viability z-score without drug = 0.17
E2f5 (GeneID 13559) — combined z-score class = high cell count with and without drug; viability z-score with doxorubicin = 2.81; viability z-score without drug = 3.04
Serpinh1 (GeneID 12406) — combined z-score class = no change with or without drug; viability z-score with doxorubicin = 1.35; viability z-score without drug = 1.85
1700029H14Rik (GeneID 66501) — combined z-score class = no change with or without drug; viability z-score with doxorubicin = 0.79; viability z-score without drug = 0.17
Stk25 (GeneID 59041) — combined z-score class = no change with or without drug; viability z-score with doxorubicin = 0; viability z-score without drug = 0.67
Gdi1 (GeneID 14567) — combined z-score class = no change with or without drug; viability z-score with doxorubicin = -0.9; viability z-score without drug = -0.84
2210409E12Rik (GeneID 72381) — combined z-score class = high cell count without drug only; viability z-score with doxorubicin = -0.34; viability z-score without drug = 3.88
Tnip2 (GeneID 231130) — combined z-score class = no change with or without drug; viability z-score with doxorubicin = 0.67; viability z-score without drug = 1.01
Ntng2 (GeneID 171171) — combined z-score class = high cell count with doxorubicin only; viability z-score with doxorubicin = 3.15; viability z-score without drug = 1.35
Prkag3 (GeneID 241113) — combined z-score class = high cell count with doxorubicin only; viability z-score with doxorubicin = 2.81; viability z-score without drug = 0.84
Dhx15 (GeneID 13204) — combined z-score class = no change with or without drug; viability z-score with doxorubicin = 1.12; viability z-score without drug = 1.18
Lyrm1 (GeneID 73919) — combined z-score class = low cell count with doxorubicin only (active); viability z-score with doxorubicin = -4.72; viability z-score without drug = 1.52
Vps37a (GeneID 52348) — combined z-score class = no change with or without drug; viability z-score with doxorubicin = -0.67; viability z-score without drug = -0.84
Pitpnm3 (GeneID 327958) — combined z-score class = no change with or without drug; viability z-score with doxorubicin = -1.24; viability z-score without drug = -0.51
Ddx6 (GeneID 13209) — combined z-score class = no change with or without drug; viability z-score with doxorubicin = 0.34; viability z-score without drug = -0.84
4930512M02Rik (GeneID 102631730) — combined z-score class = low cell count with doxorubicin only (active); viability z-score with doxorubicin = -2.47; viability z-score without drug = 0.84
Sash1 (GeneID 70097) — combined z-score class = no change with or without drug; viability z-score with doxorubicin = -0.45; viability z-score without drug = 0.51
Etv2 (GeneID 14008) — combined z-score class = no change with or without drug; viability z-score with doxorubicin = -0.22; viability z-score without drug = 0.51
Tmem50a (GeneID 71817) — combined z-score class = no change with or without drug; viability z-score with doxorubicin = 0; viability z-score without drug = -0.17

Part of the list above, showing only “viability z-score without drug”.
E2f5 (GeneID 13559) = 3.04
Serpinh1 (GeneID 12406) = 1.85
1700029H14Rik (GeneID 66501) = 0.17
Stk25 (GeneID 59041) = 0.67
